In paper PMC7819943, “Rice protein-binding microarrays: a tool to detect cis-acting elements near promoter regions in rice”:
This is one part of the list.

Amino acid sequences for entries named in this document (tags omitted).
UniProt Q0JBA9, entry or part of it: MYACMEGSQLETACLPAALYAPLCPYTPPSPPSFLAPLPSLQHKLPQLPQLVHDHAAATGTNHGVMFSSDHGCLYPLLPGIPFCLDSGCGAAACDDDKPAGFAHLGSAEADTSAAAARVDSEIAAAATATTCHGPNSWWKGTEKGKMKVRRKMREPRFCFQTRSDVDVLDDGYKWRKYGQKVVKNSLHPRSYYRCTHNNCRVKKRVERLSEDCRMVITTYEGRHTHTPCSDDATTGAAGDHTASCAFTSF

molecular target: OsWRKY34 (Oryza sativa, UniProt Q0JBA9 1-250); assay: protein-binding microarray (RPBM); PBS, 2% BSA, 51.3 ng/ul salmon testes DNA, 50 uM zinc acetate, 200 nM TF, 25 C, 1 h; high values mean tight binding; conditions: protein: recombinant; tags: N-terminal polyhistidine and DsRed monomer fusion (pET32a); label: CyDye5-dUTP incorporated in the synthesized complementary strand; 3' TTTTT single-stranded linker to array surface; dsDNA, one strand shown
Summary of the method: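 Ni–NTA purification followed expression in E. coli BL21-CodonPlus of transcription factors fused N-terminally to a polyhistidine tag and DsRed. At 200 nM in PBS with 2% BSA, salmon testes DNA and 50 µM zinc acetate, the protein was incubated for 1 h at 25 °C with a custom Agilent array that had been primer-extended with Cy5-dUTP and blocked with 2% BSA. After washing, the array was read on an Axon 4000B scanner. The binding signal is per-feature fluorescence intensity in arbitrary units.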

| Sequence | binding signal |
| --- | --- |
| CGCCGAGGGGAGGGGAGGGGAGGTTGCCATTGTTGTCCATCGGAGTCACCTAGTGCAG | 22000 fluorescence intensity (a.u.) |
| AATGGATCTGCCACTGCCAACCCAGTATCCCATAATTCCTCGGAGTCACCTAGTGCAG | 10400 fluorescence intensity (a.u.) |
| AGGCAATATTTGGAAAATCCTATGCTGGTTCTGTTGTTGTCGGAGTCACCTAGTGCAG | 8410 fluorescence intensity (a.u.) |
| AACATATCCACTGGTATCCATCCACCTGCCCCACGGTTTCCGGAGTCACCTAGTGCAG | 9520 fluorescence intensity (a.u.) |
| TTTTCCGCCTCGTCTTTTCGCTTATGCTTATATTTATCAGCGGAGTCACCTAGTGCAG | 12100 fluorescence intensity (a.u.) |
| TCGGGGTTGGGCGATATACCGAAATTTCGGTCCAAAATTTCGGAGTCACCTAGTGCAG | 13300 fluorescence intensity (a.u.) |
| TCCCGTCATTCCACGCGAGCCCGAGTTGCACGGCACCACCCGGAGTCACCTAGTGCAG | 8850 fluorescence intensity (a.u.) |
| TTTCTTCCACGCCTCTTGGGTCGATGATTTTTTCCCGGACCGGAGTCACCTAGTGCAG | 10500 fluorescence intensity (a.u.) |
| AGGTCTGGCCATTCATCCATTTTGTTTTCTGGCGAGCCAGCGGAGTCACCTAGTGCAG | 8920 fluorescence intensity (a.u.) |
| TCCGACCTTTGCATCGTGCGAGCCTCAAACCCGCGAACCCCGGAGTCACCTAGTGCAG | 9300 fluorescence intensity (a.u.) |
| TACGAGATTCTGTATGTTGTATATCCAGGTGTGTATTCTTCGGAGTCACCTAGTGCAG | 8610 fluorescence intensity (a.u.) |
| GCAACCTCTACCTCAATGTGTCGTGTCACACCGGAGCTCTCGGAGTCACCTAGTGCAG | 8640 fluorescence intensity (a.u.) |
| CCTGTCCATGATCCATCCATCCATTGCATGTACTACACCCCGGAGTCACCTAGTGCAG | 9020 fluorescence intensity (a.u.) |
| ATTTTTAACAAGTGTTTTCTCTCTGACAAGCCAGCTGCACCGGAGTCACCTAGTGCAG | 8370 fluorescence intensity (a.u.) |
| GTTCTAGTGTTCTGTTGAAATTACTCTCTCTGTCCCAAAACGGAGTCACCTAGTGCAG | 12700 fluorescence intensity (a.u.) |
| CATTGATTTTTTTTCTGTTTTCATGATCAATTTTTTTTCTCGGAGTCACCTAGTGCAG | 11100 fluorescence intensity (a.u.) |
| TTTTTTAACTTCTTCTACATGTTTTTTTAATAATCGTGTTCGGAGTCACCTAGTGCAG | 8710 fluorescence intensity (a.u.) |
| ACGTTTTTCCTATTCCTACGTTTTCTCAATCCTGCGATTCCGGAGTCACCTAGTGCAG | 9020 fluorescence intensity (a.u.) |
| TCGGTCTATTTATGCTCATAAACCATGGTCTCTTGTTTTTCGGAGTCACCTAGTGCAG | 12600 fluorescence intensity (a.u.) |
| AACATATATGCGGCATCCTTACTTAACAATCGGTCACAATCGGAGTCACCTAGTGCAG | 8740 fluorescence intensity (a.u.) |
| CTTAACTTTGCACAAAACTGGCCAGCACGAAGATCAAAGCCGGAGTCACCTAGTGCAG | 8220 fluorescence intensity (a.u.) |

In a second layout: results already given.
Sequence,binding signal
GCAACCTCTACCTCAATGTGTCGTGTCACACCGGAGCTCTCGGAGTCACCTAGTGCAG,8640 fluorescence intensity (a.u.)
CCTGTCCATGATCCATCCATCCATTGCATGTACTACACCCCGGAGTCACCTAGTGCAG,9020 fluorescence intensity (a.u.)
ATTTTTAACAAGTGTTTTCTCTCTGACAAGCCAGCTGCACCGGAGTCACCTAGTGCAG,8370 fluorescence intensity (a.u.)

Next part.

| Sequence | binding signal |
| --- | --- |
| CGTTTTCGAAGATATGATACCGACTCCGACCGTTTTCATCCGGAGTCACCTAGTGCAG | 8320 fluorescence intensity (a.u.) |
| TTTACCTTCATCATTTTGGGCTTGTATATATTGTACAATTCGGAGTCACCTAGTGCAG | 9190 fluorescence intensity (a.u.) |
| GCCGCCTCCCTTCTCGCAGCTCTGGTGACGCCTCCTGTCTCGGAGTCACCTAGTGCAG | 8150 fluorescence intensity (a.u.) |
| GCATGCAAATATTATCACCGGTCTACCATTATCTATAAAACGGAGTCACCTAGTGCAG | 8030 fluorescence intensity (a.u.) |
| TATGTATTAGTGTGTATGTGTTAAGGGGTATTTCTGTCTTCGGAGTCACCTAGTGCAG | 13900 fluorescence intensity (a.u.) |
| ATCTTTTATGCTTGGTCCTATCTGTACTACTCGTGTGTTTCGGAGTCACCTAGTGCAG | 11000 fluorescence intensity (a.u.) |
| AGGTTTGCTCCCATACTTCTTTTGCATTTGTACTAATATACGGAGTCACCTAGTGCAG | 10800 fluorescence intensity (a.u.) |
| CAAACTTGGTCAAACTTAAAACAGTTTGACTTTGATCAAACGGAGTCACCTAGTGCAG | 9260 fluorescence intensity (a.u.) |
| ATTTCCGCTTCGACGCCATTGTTGCAACCTCTCTTGCCGCCGGAGTCACCTAGTGCAG | 10100 fluorescence intensity (a.u.) |
| GGCGGTGAGGGAGGCGGGCAGGATGAAGAAGAAGAAGAAGCGGAGTCACCTAGTGCAG | 10900 fluorescence intensity (a.u.) |
| CGTCTCCATCCTCCGCTCTCGTCCCCGGCGCCGCCACCACCGGAGTCACCTAGTGCAG | 8860 fluorescence intensity (a.u.) |
| ACGTATCAGCCGCACTCGTCGTGCGCACGCCGTCTCGCCGCGGAGTCACCTAGTGCAG | 8550 fluorescence intensity (a.u.) |
| TCCACCTTCTAACCGCTTCCTTGCTTGCTGCCATAAGCCGCGGAGTCACCTAGTGCAG | 8300 fluorescence intensity (a.u.) |
| AATCCAAAACAGCCCCATGTTTACACTCTACAGTCCCCTACGGAGTCACCTAGTGCAG | 8340 fluorescence intensity (a.u.) |
| GTGCGTGTAAACTTTTTTGGGGTTGTTTTGGGCGGTTACTCGGAGTCACCTAGTGCAG | 18200 fluorescence intensity (a.u.) |
| CGTACACAACAATAGTCTCTCTTTGTCCATATGACGTATCCGGAGTCACCTAGTGCAG | 9260 fluorescence intensity (a.u.) |
| TACCTCTCTCTCTCTCTCGCCTCCCTGCGCTCTCTTGTGTCGGAGTCACCTAGTGCAG | 8520 fluorescence intensity (a.u.) |
| CCACGCCACATCCCTAAACTTCTCCATCTCCATAGTACTCCGGAGTCACCTAGTGCAG | 9680 fluorescence intensity (a.u.) |
| AGGCCCGACGCCGTGCTTGCATTCCTCGCCGAAGAGCTCGCGGAGTCACCTAGTGCAG | 8770 fluorescence intensity (a.u.) |
| AGGGTAGACAGGGATACAGGATGGGAATCATAATATAGATCGGAGTCACCTAGTGCAG | 8040 fluorescence intensity (a.u.) |
| ACCTTCTTCTTCGTCCAACATGGTTCATCGCCAGCGTCGTCGGAGTCACCTAGTGCAG | 11900 fluorescence intensity (a.u.) |
